Drawing on the supplement of paper PMC6411743, this text covers NP40-soluble protein abundance for 12 targets.

Sequences of proteins named here, by UniProt entry; tags and fusion partners are left off. A change or cut given only in a name is not applied to a line headed by its entry.
UniProt O94967: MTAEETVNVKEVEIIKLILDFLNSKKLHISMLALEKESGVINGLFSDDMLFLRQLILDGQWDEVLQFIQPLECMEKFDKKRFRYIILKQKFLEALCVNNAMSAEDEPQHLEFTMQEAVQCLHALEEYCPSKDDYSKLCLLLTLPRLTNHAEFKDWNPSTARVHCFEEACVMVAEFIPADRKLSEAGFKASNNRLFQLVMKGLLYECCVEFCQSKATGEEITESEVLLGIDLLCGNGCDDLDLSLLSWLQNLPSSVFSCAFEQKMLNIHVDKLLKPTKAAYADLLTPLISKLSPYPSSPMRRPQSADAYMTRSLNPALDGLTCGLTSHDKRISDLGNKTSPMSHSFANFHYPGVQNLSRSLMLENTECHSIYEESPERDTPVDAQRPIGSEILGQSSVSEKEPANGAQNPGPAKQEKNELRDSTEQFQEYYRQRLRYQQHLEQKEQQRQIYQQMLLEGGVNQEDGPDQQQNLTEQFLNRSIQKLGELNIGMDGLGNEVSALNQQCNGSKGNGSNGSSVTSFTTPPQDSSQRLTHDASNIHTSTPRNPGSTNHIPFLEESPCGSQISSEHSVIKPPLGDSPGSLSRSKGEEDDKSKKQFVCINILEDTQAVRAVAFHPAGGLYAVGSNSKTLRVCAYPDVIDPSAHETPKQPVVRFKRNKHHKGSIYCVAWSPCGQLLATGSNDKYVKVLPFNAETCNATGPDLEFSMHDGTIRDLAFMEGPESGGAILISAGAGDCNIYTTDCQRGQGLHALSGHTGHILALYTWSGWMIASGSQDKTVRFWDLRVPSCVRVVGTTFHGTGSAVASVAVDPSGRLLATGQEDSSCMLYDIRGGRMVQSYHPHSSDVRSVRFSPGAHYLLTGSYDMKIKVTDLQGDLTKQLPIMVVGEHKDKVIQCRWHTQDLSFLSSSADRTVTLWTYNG
UniProt P09211: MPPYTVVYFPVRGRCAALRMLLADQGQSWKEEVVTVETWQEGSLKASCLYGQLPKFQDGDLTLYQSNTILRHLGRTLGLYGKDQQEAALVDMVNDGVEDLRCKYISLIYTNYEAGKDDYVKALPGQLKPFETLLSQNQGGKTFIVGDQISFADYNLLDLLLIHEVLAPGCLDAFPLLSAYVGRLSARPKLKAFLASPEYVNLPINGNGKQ
UniProt Q5XKP0: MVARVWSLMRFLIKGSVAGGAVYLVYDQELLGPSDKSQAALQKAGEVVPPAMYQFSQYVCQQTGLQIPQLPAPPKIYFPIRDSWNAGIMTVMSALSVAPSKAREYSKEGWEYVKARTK
UniProt Q6ZRS2, whole entry, looked up: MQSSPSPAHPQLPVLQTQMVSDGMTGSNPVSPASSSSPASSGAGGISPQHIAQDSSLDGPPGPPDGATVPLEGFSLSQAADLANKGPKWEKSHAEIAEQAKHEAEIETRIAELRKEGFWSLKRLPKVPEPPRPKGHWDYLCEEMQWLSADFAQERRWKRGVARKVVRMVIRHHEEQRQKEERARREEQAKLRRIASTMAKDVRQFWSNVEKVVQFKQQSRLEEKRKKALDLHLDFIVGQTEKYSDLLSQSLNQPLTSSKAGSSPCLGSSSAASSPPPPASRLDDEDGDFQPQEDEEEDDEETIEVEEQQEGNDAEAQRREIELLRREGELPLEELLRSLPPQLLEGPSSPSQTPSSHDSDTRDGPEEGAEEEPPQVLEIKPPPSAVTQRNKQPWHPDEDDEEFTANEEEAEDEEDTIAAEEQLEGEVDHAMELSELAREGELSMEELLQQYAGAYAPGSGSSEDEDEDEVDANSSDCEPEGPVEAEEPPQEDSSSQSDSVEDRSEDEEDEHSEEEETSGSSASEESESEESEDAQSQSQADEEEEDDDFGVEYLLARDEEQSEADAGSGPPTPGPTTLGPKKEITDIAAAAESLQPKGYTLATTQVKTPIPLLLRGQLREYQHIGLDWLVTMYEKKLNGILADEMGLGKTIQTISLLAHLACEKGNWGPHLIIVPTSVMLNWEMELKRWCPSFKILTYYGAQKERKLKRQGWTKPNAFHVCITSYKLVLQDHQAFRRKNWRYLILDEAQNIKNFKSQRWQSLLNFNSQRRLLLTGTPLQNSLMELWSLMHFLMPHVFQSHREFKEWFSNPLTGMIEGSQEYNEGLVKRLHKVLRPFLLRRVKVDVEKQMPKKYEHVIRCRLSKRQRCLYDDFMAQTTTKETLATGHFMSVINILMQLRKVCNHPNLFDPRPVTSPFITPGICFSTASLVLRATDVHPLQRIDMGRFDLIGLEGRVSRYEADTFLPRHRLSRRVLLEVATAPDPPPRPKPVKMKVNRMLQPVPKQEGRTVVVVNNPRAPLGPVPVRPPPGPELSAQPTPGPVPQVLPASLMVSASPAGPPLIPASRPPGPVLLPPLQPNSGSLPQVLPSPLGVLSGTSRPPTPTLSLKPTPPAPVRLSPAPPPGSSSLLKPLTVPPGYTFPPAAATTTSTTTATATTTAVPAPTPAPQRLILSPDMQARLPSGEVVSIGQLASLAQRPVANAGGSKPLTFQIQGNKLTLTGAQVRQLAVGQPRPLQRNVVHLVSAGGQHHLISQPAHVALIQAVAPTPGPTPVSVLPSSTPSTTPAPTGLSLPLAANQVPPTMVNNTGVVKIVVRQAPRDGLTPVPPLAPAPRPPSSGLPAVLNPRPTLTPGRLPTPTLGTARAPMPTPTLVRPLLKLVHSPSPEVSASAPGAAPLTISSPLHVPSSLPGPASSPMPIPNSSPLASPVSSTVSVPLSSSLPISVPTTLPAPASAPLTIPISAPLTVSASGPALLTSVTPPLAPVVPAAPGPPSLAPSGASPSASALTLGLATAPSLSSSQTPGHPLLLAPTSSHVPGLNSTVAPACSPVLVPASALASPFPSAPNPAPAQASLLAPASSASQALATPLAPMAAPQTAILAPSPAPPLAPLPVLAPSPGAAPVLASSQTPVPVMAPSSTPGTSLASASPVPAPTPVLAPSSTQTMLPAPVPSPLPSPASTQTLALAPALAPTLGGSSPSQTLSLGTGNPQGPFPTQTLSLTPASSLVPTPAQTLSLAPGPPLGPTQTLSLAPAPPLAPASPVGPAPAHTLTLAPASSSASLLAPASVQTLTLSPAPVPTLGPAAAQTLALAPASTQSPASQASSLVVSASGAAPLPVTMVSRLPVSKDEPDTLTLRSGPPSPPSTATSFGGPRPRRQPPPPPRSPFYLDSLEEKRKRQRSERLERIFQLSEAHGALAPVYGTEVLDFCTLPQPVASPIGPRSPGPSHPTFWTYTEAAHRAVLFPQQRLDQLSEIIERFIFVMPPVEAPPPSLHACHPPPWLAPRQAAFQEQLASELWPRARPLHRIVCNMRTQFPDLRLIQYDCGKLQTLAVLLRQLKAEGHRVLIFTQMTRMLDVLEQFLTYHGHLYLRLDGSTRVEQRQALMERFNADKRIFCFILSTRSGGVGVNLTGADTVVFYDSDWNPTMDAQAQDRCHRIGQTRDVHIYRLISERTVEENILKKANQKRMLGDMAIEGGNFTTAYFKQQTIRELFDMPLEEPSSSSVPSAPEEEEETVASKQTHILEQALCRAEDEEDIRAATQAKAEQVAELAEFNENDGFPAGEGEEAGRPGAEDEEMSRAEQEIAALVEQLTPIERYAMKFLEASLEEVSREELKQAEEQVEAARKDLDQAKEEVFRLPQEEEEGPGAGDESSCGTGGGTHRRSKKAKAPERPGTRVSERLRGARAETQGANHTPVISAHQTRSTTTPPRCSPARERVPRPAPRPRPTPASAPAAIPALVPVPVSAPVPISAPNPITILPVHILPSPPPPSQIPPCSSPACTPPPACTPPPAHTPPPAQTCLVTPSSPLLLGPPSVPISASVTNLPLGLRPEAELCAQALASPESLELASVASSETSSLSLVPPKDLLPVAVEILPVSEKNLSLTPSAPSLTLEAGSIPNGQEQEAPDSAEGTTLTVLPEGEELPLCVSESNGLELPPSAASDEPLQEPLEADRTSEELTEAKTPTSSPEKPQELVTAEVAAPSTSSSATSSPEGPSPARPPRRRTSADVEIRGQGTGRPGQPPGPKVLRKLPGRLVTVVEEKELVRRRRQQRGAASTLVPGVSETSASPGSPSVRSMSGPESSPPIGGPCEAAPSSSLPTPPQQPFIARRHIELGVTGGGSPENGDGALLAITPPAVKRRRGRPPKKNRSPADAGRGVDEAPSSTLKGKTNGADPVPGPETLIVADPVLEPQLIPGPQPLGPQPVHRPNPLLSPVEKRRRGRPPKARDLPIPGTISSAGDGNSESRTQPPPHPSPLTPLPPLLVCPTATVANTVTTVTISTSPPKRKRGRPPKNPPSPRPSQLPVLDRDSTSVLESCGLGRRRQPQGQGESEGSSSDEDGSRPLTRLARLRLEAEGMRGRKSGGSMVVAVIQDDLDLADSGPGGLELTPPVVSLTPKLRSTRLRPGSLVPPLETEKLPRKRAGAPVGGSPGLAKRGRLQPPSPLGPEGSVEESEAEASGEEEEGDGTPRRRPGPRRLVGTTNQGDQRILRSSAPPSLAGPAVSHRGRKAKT
UniProt O00571: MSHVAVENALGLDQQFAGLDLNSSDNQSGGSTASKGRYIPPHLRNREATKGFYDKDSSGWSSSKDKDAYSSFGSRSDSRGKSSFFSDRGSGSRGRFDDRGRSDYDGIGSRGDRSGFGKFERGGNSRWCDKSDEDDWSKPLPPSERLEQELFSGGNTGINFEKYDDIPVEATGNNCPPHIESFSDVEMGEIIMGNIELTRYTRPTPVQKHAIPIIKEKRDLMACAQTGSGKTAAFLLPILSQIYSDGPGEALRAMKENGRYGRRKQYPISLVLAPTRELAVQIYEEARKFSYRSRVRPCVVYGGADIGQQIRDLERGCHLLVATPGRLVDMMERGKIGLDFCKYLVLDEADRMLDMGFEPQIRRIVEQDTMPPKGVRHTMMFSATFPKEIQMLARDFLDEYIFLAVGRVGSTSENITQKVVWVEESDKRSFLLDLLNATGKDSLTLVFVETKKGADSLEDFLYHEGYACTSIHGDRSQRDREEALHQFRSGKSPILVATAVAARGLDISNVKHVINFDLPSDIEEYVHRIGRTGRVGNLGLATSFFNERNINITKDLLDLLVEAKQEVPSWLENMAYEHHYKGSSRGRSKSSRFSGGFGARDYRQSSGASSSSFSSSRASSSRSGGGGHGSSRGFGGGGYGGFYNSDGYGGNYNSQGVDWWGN
UniProt Q9NYM9: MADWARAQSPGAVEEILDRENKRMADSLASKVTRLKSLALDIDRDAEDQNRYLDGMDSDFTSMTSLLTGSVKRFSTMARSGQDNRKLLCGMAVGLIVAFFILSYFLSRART
UniProt P05161, whole entry: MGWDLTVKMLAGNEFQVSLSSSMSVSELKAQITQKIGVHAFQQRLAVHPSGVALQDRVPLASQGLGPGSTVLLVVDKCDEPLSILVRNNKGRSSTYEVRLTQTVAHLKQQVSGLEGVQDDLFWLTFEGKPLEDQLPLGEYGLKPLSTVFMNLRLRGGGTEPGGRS
UniProt Q6VN20, whole entry: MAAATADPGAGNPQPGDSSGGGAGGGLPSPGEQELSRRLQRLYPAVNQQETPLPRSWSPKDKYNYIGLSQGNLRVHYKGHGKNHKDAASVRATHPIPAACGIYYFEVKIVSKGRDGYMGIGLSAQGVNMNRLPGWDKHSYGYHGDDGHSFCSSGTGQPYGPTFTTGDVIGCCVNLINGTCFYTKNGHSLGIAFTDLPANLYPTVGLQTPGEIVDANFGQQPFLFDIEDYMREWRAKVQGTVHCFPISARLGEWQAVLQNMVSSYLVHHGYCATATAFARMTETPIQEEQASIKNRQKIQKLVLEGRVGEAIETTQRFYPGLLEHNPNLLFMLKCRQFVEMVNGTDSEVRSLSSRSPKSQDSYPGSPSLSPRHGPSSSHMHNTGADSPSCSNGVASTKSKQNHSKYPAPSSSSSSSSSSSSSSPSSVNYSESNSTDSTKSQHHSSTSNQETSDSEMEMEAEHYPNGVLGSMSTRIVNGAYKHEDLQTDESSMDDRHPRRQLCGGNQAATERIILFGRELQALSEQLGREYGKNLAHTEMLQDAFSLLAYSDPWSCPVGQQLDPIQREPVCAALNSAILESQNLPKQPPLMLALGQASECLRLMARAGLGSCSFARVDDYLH
UniProt P04179: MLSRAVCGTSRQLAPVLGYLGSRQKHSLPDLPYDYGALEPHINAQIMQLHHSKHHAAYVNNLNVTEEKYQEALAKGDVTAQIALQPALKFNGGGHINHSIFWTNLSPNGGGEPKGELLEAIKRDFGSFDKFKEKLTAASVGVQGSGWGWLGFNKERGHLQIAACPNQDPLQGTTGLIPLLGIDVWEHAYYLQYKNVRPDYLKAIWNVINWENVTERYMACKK

Compound in this experiment: Nc1nc2c(ncn2[C@@H]2O[C@H](COP(=O)(O)OP(=O)(O)OP(=O)(O)O)[C@@H](O)[C@H]2O)c(=O)[nH]1 [guanosine triphosphate]
Description: NP40-soluble protein abundance relative to vehicle (solubility fold change) (ratio); higher = more soluble protein in presence of GTP. An outline of the steps: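 Eight concentrations, 0.1 to 10 mM, were tested on Jurkat crude lysate for 10 min at room temperature and then 3 min at 37 °C, in three independent experiments. The lysate was solubilised with 0.8% NP40 and benzonase, ultracentrifuged, and the supernatant TMT-labelled for LC-MS/MS. Each value is the fold change against the detergent-processed vehicle in its own replicate, from vsn-normalised intensities.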

± gives the standard deviation of the averaged measurements. Some of the results follow.

In the case of “A0A0A0MRE6|O94967 and related entries (UniProt O94967)”, the NP40-soluble protein abundance reads like this: (concentration: 0.1mM) 1.05 ± 0.084; (concentration: 0.5mM) 1.08 ± 0.083; (concentration: 1mM) 1.002 ± 0.0072; (concentration: 2mM) 1.05 ± 0.061; (concentration: 4mM) 0.924 ± 0.018; (concentration: 6mM) 0.983 ± 0.076. In addition, the NP40-soluble protein abundance runs as follows: (concentration: 8mM) 0.94 ± 0.036; (concentration: 10mM) 1.01 ± 0.039.

On to A0A087X243|P09211 (UniProt P09211), for which the NP40-soluble protein abundance was determined as 0.888 ± 0.067 (concentration: 0.1mM); 0.947 ± 0.071 (concentration: 0.5mM); 0.841 ± 0.064 (concentration: 1mM); 0.83 ± 0.031 (concentration: 2mM); 0.792 ± 0.053 (concentration: 4mM); 0.817 ± 0.044 (concentration: 6mM). For the same target, the NP40-soluble protein abundance reads like this: (concentration: 8mM) 0.763 ± 0.084; (concentration: 10mM) 0.783 ± 0.073.

With A0A087WZ13|E9PAU2 (UniProt Q8IY67), the NP40-soluble protein abundance runs as follows: (concentration: 0.1mM) 0.994 ± 0.017; (concentration: 0.5mM) 0.942 ± 0.03; (concentration: 1mM) 0.962 ± 0.021; (concentration: 2mM) 0.96 ± 0.031; (concentration: 4mM) 0.98 ± 0.021; (concentration: 6mM) 0.948 ± 0.041. The NP40-soluble protein abundance is, setting by setting: (concentration: 8mM) 0.942 ± 0.014; (concentration: 10mM) 0.971 ± 0.037.

“A0A140TA84|A0A140TA86|K7EIR2 and related entries (UniProt Q5XKP0+K7EIR2)”: the NP40-soluble protein abundance by setting is: (concentration: 0.1mM) 0.893 ± 0.021; (concentration: 0.5mM) 0.931 ± 0.049; (concentration: 1mM) 0.9146 ± 0.0011; (concentration: 2mM) 0.916 ± 0.067; (concentration: 4mM) 0.896 ± 0.018; (concentration: 6mM) 0.923 ± 0.027. The NP40-soluble protein abundance came to 0.93 ± 0.055 (concentration: 8mM) and 0.907 ± 0.028 (concentration: 10mM).

Consider “A0A0C4DFX4|Q6ZRS2 and related entries (UniProt Q6ZRS2)”, for which the NP40-soluble protein abundance was found to be 1.12 ± 0.075 (concentration: 0.1mM); 1.11 ± 0.013 (concentration: 0.5mM); 1.3 ± 0.042 (concentration: 1mM); 1.44 ± 0.17 (concentration: 2mM); 1.6 ± 0.21 (concentration: 4mM); 1.62 ± 0.17 (concentration: 6mM). In addition, the NP40-soluble protein abundance amounted to 1.86 ± 0.33 (concentration: 8mM) and 1.83 ± 0.29 (concentration: 10mM).

Consider “A0A0D9SF53|A0A0D9SFB3|A0A0D9SG12|O00571 and related entries (UniProt O00571)”, for which the NP40-soluble protein abundance is 0.997 ± 0.016 (concentration: 0.1mM); 1.03 ± 0.0085 (concentration: 0.5mM); 1.012 ± 0.0048 (concentration: 1mM); 1.05 ± 0.018 (concentration: 2mM); 1.1 ± 0.055 (concentration: 4mM); 1.17 ± 0.057 (concentration: 6mM). The NP40-soluble protein abundance reads like this: (concentration: 8mM) 1.2 ± 0.051; (concentration: 10mM) 1.23 ± 0.038.

In the case of UniProt A0MZ66 and related entries, the NP40-soluble protein abundance runs as follows: (concentration: 0.1mM) 0.905 ± 0.02; (concentration: 0.5mM) 0.898 ± 0.068; (concentration: 1mM) 0.942 ± 0.038; (concentration: 2mM) 0.931 ± 0.078; (concentration: 4mM) 0.912 ± 0.019; (concentration: 6mM) 0.906 ± 0.057. Further, the NP40-soluble protein abundance was determined as 0.921 ± 0.055 (concentration: 8mM) and 0.946 ± 0.074 (concentration: 10mM).

Consider “A0A0C4DH16|B8ZZS0 and related entries (UniProt Q9NYM9)”, for which the NP40-soluble protein abundance was determined as 0.849 ± 0.071 (concentration: 0.1mM); 0.819 ± 0.096 (concentration: 0.5mM); 1.03 ± 0.032 (concentration: 1mM); 0.95 ± 0.053 (concentration: 2mM); 0.965 ± 0.036 (concentration: 4mM); 0.962 ± 0.083 (concentration: 6mM). Further, the NP40-soluble protein abundance was 0.888 ± 0.098 (concentration: 8mM) and 1.03 ± 0.048 (concentration: 10mM).

Turning to “A0A096LNZ9|A0A096LPJ4|P05161 (UniProt P05161)”, the NP40-soluble protein abundance came out at 0.9514 ± 0.0057 (concentration: 0.1mM); 0.961 ± 0.023 (concentration: 0.5mM); 0.899 ± 0.019 (concentration: 1mM); 0.888 ± 0.02 (concentration: 2mM); 0.869 ± 0.026 (concentration: 4mM); 0.885 ± 0.035 (concentration: 6mM). Besides, the NP40-soluble protein abundance reads like this: (concentration: 8mM) 0.83 ± 0.034; (concentration: 10mM) 0.836 ± 0.034.

On to “A0A0D9SEU5|Q6VN20 and related entries (UniProt Q6VN20)”, for which the NP40-soluble protein abundance (concentration: 0.1mM) was 1.09 ± 0.062; the NP40-soluble protein abundance (concentration: 0.5mM) is 1.11 ± 0.077; the NP40-soluble protein abundance (concentration: 1mM) amounted to 1.15 ± 0.039; the NP40-soluble protein abundance (concentration: 2mM) came to 1.13 ± 0.063; the NP40-soluble protein abundance (concentration: 4mM) came to 1.18 ± 0.095; the NP40-soluble protein abundance (concentration: 6mM) worked out at 1.15 ± 0.063. Also, the NP40-soluble protein abundance reads like this: (concentration: 8mM) 1.13 ± 0.11; (concentration: 10mM) 1.18 ± 0.12.

For A0A0A0MSS3|Q8ND83 (UniProt Q8ND83), the NP40-soluble protein abundance by setting is: (concentration: 0.1mM) 1 ± 0.017; (concentration: 0.5mM) 1.06 ± 0.067; (concentration: 1mM) 1.09 ± 0.036; (concentration: 2mM) 1.09 ± 0.02; (concentration: 4mM) 1.06 ± 0.076; (concentration: 6mM) 1.04 ± 0.034. For the same target, the NP40-soluble protein abundance is, setting by setting: (concentration: 8mM) 1.04 ± 0.04; (concentration: 10mM) 1.09 ± 0.081.

For the target “A0A0C4DFU2|P04179 and related entries (UniProt P04179)”, the NP40-soluble protein abundance (concentration: 0.1mM) was determined as 0.85 ± 0.056; the NP40-soluble protein abundance (concentration: 0.5mM) came to 0.843 ± 0.071; the NP40-soluble protein abundance (concentration: 1mM) was 0.851 ± 0.071; the NP40-soluble protein abundance (concentration: 2mM) was determined as 0.839 ± 0.043; the NP40-soluble protein abundance (concentration: 4mM) stood at 0.814 ± 0.045; the NP40-soluble protein abundance (concentration: 6mM) is 0.823 ± 0.052. For the same target, the NP40-soluble protein abundance (concentration: 8mM) is 0.734 ± 0.073 and the NP40-soluble protein abundance (concentration: 10mM) was 0.776 ± 0.07.
